Test results as given in the supplement of paper PMC10849652.
The list shows a part of the results.

Amino acid sequences for entries named in this document (tags omitted). A change or cut given only in a name is not applied to a line headed by its entry.
UniProt P15976: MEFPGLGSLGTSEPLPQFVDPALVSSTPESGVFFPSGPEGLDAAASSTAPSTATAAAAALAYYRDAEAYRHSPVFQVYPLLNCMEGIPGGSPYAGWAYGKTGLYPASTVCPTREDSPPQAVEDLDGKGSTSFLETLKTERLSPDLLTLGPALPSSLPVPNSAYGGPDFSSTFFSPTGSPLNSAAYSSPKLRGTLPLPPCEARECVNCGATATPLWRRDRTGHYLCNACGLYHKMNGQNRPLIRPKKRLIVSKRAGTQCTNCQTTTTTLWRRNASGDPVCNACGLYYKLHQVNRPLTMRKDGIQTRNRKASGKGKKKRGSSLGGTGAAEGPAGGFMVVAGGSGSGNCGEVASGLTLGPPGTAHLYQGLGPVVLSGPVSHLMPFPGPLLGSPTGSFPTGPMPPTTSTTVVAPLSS
UniProt Q86YP4: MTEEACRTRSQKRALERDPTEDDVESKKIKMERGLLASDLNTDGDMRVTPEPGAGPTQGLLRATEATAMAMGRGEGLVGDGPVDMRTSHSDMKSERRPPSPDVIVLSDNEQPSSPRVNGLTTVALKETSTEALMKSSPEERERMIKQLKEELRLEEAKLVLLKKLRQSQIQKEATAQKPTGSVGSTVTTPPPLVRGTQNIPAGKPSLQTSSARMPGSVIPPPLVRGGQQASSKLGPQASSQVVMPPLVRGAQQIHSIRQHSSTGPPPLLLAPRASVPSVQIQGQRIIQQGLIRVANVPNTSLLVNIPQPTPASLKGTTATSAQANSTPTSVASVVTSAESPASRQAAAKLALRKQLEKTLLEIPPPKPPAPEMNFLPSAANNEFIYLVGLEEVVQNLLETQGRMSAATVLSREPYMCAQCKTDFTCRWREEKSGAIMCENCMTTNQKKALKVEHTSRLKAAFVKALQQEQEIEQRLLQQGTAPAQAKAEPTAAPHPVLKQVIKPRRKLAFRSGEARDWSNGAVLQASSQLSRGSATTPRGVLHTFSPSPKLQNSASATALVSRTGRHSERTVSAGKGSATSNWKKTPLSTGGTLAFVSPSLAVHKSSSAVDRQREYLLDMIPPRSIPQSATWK
UniProt O14976: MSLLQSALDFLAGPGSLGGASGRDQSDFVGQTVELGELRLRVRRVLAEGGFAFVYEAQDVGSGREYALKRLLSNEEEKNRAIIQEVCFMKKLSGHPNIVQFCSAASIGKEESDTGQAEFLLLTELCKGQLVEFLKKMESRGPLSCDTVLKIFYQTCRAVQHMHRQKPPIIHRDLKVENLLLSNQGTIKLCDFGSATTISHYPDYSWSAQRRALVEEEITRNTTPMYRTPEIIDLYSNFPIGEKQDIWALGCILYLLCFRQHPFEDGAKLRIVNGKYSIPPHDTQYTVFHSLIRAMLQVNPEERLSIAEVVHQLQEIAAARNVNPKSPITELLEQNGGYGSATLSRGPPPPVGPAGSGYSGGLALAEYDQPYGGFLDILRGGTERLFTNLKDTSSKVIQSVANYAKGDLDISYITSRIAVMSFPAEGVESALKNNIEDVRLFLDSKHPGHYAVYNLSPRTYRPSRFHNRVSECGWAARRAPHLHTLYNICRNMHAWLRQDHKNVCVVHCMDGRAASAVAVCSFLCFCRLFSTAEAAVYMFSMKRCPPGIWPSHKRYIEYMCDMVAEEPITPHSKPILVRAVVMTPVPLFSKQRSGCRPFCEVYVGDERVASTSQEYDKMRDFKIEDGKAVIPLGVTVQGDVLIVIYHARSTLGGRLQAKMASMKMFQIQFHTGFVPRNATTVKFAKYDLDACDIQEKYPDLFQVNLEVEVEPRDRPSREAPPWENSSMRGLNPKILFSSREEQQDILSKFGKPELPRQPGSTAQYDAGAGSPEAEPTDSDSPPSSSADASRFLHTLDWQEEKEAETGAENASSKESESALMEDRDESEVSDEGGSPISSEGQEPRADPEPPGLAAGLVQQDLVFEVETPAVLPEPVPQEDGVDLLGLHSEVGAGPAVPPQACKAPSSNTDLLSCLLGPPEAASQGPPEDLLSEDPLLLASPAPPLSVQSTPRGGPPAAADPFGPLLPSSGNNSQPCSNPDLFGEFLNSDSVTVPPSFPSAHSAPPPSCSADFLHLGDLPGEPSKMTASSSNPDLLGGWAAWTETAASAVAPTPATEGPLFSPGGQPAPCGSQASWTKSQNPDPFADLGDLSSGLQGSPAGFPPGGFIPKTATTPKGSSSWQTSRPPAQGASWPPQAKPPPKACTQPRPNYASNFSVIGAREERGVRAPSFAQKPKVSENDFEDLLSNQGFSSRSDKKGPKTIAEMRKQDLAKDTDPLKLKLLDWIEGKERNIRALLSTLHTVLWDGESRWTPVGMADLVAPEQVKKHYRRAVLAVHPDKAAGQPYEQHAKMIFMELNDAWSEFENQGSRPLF
UniProt Q9UN86: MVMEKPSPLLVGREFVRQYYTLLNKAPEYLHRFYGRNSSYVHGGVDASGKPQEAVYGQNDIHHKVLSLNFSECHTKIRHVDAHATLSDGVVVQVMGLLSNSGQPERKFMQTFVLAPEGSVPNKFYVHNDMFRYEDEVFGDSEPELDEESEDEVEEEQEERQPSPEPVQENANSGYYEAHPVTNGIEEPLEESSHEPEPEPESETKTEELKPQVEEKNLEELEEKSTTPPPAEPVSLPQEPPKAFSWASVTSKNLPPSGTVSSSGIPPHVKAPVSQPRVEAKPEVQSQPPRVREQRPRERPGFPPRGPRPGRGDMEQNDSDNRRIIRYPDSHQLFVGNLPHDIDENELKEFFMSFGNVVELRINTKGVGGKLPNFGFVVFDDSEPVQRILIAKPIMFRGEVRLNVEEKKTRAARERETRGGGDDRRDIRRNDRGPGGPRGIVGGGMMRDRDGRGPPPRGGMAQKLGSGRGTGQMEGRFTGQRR
UniProt Q06210: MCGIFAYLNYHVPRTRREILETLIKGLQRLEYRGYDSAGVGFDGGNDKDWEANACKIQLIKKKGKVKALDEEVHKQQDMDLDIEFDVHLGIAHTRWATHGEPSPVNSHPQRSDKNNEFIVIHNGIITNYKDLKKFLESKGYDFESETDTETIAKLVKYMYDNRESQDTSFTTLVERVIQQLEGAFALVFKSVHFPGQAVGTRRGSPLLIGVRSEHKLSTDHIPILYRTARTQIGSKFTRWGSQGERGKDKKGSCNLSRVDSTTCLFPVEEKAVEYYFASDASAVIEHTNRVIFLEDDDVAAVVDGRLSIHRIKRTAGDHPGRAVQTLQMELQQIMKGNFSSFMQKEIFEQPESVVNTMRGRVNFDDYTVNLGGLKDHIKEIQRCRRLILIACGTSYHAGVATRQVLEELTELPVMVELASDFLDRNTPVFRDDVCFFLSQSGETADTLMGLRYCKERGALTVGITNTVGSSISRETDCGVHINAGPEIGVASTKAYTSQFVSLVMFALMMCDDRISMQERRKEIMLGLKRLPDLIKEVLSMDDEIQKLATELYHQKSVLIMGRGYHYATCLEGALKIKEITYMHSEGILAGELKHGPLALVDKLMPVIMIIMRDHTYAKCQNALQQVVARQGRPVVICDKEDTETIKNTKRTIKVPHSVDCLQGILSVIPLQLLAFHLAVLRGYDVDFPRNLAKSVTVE
UniProt Q495W5: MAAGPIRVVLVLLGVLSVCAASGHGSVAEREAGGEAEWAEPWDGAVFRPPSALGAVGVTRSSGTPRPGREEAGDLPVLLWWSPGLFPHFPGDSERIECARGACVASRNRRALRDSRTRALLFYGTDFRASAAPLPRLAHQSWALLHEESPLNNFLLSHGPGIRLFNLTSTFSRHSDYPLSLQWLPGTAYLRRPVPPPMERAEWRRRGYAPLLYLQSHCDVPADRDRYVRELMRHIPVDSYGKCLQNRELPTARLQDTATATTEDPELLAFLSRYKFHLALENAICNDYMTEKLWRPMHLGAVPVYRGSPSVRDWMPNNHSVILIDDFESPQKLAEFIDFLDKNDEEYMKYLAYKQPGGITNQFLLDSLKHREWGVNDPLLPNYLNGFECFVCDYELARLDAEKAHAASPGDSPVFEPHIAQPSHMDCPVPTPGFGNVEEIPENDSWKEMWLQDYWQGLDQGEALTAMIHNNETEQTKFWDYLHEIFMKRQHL
UniProt P51116, whole entry, looked up: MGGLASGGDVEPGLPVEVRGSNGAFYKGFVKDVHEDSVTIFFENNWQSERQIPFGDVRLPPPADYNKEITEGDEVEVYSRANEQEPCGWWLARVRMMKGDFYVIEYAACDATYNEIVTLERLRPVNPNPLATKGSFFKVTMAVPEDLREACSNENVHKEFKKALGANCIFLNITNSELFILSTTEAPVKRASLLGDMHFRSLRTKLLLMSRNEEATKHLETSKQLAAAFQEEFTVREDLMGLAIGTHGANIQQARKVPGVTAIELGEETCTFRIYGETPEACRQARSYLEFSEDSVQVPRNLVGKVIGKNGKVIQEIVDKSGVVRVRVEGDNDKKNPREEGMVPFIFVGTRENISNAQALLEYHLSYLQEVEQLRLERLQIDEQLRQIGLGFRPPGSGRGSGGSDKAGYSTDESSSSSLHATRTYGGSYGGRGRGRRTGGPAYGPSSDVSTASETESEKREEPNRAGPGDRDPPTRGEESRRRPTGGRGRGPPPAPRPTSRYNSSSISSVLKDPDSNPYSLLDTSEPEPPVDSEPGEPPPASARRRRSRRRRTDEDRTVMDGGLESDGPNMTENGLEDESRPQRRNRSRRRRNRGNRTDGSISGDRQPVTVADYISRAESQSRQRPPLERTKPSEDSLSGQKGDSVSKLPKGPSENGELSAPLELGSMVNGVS
UniProt Q14697: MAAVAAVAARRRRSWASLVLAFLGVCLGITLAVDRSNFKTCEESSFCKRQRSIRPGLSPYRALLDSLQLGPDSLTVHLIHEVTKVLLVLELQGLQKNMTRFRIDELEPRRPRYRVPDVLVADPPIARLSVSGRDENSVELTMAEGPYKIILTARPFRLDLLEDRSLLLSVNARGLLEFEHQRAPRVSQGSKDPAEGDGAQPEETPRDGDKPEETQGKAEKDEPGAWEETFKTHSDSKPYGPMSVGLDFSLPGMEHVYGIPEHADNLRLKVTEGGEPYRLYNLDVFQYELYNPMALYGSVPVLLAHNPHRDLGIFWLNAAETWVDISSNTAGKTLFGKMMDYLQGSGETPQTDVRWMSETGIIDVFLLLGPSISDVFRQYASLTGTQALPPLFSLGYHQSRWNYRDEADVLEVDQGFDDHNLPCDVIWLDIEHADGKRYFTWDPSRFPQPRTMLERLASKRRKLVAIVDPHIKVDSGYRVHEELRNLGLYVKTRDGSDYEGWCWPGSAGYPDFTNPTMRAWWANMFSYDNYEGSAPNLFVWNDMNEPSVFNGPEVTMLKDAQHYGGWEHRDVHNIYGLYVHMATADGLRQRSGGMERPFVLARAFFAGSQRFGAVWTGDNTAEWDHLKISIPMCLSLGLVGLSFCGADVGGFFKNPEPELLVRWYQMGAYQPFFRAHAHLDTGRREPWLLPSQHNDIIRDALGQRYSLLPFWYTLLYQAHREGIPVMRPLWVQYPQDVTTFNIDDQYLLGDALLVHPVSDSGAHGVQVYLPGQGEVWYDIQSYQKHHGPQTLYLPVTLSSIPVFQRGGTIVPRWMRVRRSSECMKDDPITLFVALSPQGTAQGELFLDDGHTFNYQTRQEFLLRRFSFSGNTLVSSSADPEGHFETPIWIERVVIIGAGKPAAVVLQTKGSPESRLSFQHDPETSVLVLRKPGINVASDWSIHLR
UniProt Q6ZNA5: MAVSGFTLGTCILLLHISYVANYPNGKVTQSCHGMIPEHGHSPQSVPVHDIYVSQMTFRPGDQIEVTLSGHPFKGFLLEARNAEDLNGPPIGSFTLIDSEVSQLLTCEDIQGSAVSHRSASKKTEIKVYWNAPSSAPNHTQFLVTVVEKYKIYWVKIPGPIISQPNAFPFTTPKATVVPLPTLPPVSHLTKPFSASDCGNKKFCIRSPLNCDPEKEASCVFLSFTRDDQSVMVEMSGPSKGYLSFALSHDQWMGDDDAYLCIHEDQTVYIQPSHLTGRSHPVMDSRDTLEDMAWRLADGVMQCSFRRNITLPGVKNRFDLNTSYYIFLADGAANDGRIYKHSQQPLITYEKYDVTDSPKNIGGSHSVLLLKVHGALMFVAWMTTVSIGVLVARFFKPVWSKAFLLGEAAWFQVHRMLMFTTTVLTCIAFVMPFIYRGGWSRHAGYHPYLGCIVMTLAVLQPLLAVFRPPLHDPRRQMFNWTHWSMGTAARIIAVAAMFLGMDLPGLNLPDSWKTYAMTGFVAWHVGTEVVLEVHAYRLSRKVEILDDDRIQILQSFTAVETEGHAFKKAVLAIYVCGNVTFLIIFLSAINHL

compound: CS(=O)(=O)N1CCN(Cc2cc3nc(-c4cccc5[nH]ncc45)nc(N4CCOCC4)c3s2)CC1 [pictilisib]; experiment: log2 fold change, soluble protein after heating vs DMSO (PISA); higher = thermal stabilisation; K562 cells, 10 uM, 30 min; active = over 0.2 and 3.5 SD of the protein, either way, in both replicates (recomputed)
Procedure, shortened: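 Soluble protein was defined as the supernatant after 21,000xg for 90 min. It came from K562 cells at 2×10^6 cells/mL given 10 μM compound for 30 min, heated in aliquots for 3 min across 48°C-58°C, pooled, and extracted in PBS with 0.5% NP-40 at 4°C, and was quantified by TMTpro 16plex LC-MS/MS with equalised channel sums. Thermal stability against control samples, from duplicates, is reported as log2 fold change.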

Target	log2 fold change
GALE (UniProt Q14376)	inactive: 0.06
GALC (UniProt P54803)	inactive: 0.159
GCAT isoform 2 (UniProt O75600)	inactive: 0.105
GBA (UniProt P04062)	inactive: 0.011
GATA1 (UniProt P15976)	inactive: -0.021
GGNBP2 (UniProt Q9H3C7)	inactive: 0.004
GALNS (UniProt P34059)	inactive: 0.042
GHITM (UniProt Q9H3K2)	inactive: 0.037
GATAD2A isoform 3 (UniProt Q86YP4)	inactive: 0.013
GAK (UniProt O14976)	inactive: 0.226
FSCN1 (UniProt Q16658)	inactive: 0.011
GADD45GIP1 (UniProt Q8TAE8)	inactive: 0.061
GART (UniProt C9JZG2)	inactive: 0.11
GCN1 (UniProt Q92616)	inactive: -0.115
GABARAPL1 isoform 2 (UniProt Q9H0R8)	inactive: 0.115
FRG1 (UniProt Q14331)	inactive: -0.044
GDAP1 (UniProt Q8TB36)	inactive: 0.138

Looked up above.
In log2 fold change, GALE (UniProt Q14376) is entered as inactive: 0.06
In log2 fold change, GDAP1 (UniProt Q8TB36) is entered as inactive: 0.138

Remaining list, next part:

Target	log2 fold change
GCLC (UniProt P48506)	inactive: 0.083
G3BP2 (UniProt Q9UN86)	inactive: -0.212
GFPT1 (UniProt Q06210)	inactive: 0.063
FUT11 (UniProt Q495W5)	inactive: -0.221
FXR2 (UniProt P51116)	inactive: 0.039
FUCA2 (UniProt Q9BTY2)	inactive: 0.011
FUBP3 (UniProt Q96I24)	inactive: -0.062
GART (UniProt P22102)	inactive: -0.026
FUBP1 isoform 2 (UniProt Q96AE4)	inactive: 0.015
FTSJ1 (UniProt Q9UET6)	inactive: 0.059
GANAB isoform 2 (UniProt Q14697)	inactive: -0.083
GATD1 (UniProt Q8NB37)	inactive: 0.08
GEMIN6 (UniProt Q8WXD5)	inactive: 0.064
GGPS1 (UniProt O95749)	inactive: 0.06
GABPA (UniProt Q06546)	inactive: 0.02
FRRS1 (UniProt Q6ZNA5)	inactive: 0.01
